In US20080194483A1, “GLP-1 (9-36) methods and compositions” (priority 2003, published 2008):
“Also recorded” adds a separate entry of the source. At least one peptide structure holds a part that was inferred or is arguable (an end, a ring closure or a residue).

What was measured:
[1] = system: bovine aortic endothelial cells (BAECs); assay: Hyperglycemia-induced intracellular ROS (CM-H2DCFDA) in cultured vascular endothelial cells; format: cell-based; conditions: 30 mM glucose, peptide alone, ROS measured 24 hrs later (FIG. 1)
Procedure: Cell culture conditions. For reactive oxygen species (RO) measurement, bovine aortic endothelial cells (BAECs, passage 4-10) were plated in 96 well plates at 100,000 cells/well in Eagle's MEM containing 10% FBS, essential and nonessential amino acids, and antibiotics. Cells were incubated with either 5 mM glucose, 30 mM glucose, 30 mM glucose plus 10 nM GLP-1 (7-36), 30 mM glucose plus 10 nM GLP-1 (7-36), 30 mM glucose plus 10 nM GLP-1 (7-36) plus 10 μM pyrrolidide (a DPP IV inhibitor), 30 mM glucose plus 10 nM GLP-1 (7-36) plus 10 μM pyrrolidide and 100 μM phosphoramidon (a neutral endopeptidase 24.11 inhibitor), and 30 mM glucose plus GLP-1 (9-36) plus 10 nM exendin 9-39, a blocker of the GLP-1 (7-36) receptor. The pyrrolidide, phosphoramidon, and exendin 9-39 were each added to the cells four hours before the addition of the peptides. The ROS measurements were performed 24 hrs later.
Intracellular reactive oxygen species measurements. The intracellular formation of reactive oxygen species was detected using the fluorescent probe CM-H2DCFDA (Molecular Probes). Cells (1×10^5 ml^−1) were loaded with 10 μM CM-H2DCFDDA, incubated for 45 min at 37° C., and analysed in an HTS 7000 Bio Assay Fluorescent Plate Reader (Perkin Elmer) using the HTSoft program. ROS production was determined from an H2O2 standard curve (10-200 nmol ml^−1).

[2] = system: endothelial nitric oxide synthase (eNOS); assay: eNOS activity ([3H]L-arginine to [3H]L-citrulline) in cultured vascular endothelial cells; format: cell-based, bovine; conditions: BAECs, 30 mM glucose, peptide alone, measured 48 hrs later (FIG. 2)
Procedure: Cell-culture conditions. For measurement of endothelial nitric oxide activity (eNOS), bovine aortic endothelial cells (BAECs, passage 4-10) were plated in 24 well plates at 200,000 cells /well in Eagle's MEM containing 10% FBS, essential and nonessential amino acids, and antibiotics. Cells were incubated with either 5 mM glucose, 30 mM glucose, 30 mM glucose plus 10 nM GLP-1 (7-36), 30 mM glucose plus 10 nM GLP-1 (7-36) plus 10 μM pyrrolidide (a DPP IV inhibitor) (not shown in FIG. 2), 30 mM glucose plus 10 nM GLP-1 (7-36) plus 10 μM pyrrolidide and 100 μM phosphoramidon (a neutral endopeptidase 24.11 inhibitor), 30 mM glucose+GLP-1 (9-36), and 30 mM glucose plus GLP-1 (9-36) plus 10 nM exendin 9-39, a blocker of the GLP-1 (7-36) receptor. The pyrrolidide, phosphoramidon, and exendin 9-39 were each added to the cells four hours before the addition of the peptides. eNOS activity measurements were performed 48 hrs later. Measurement of eNOS activity. eNOS activity in cells was determined by first incubating cells in L-arginine-deficient, serum-free MEM media for 6 hours. […] The eluate was collected in glass scintillation vials for [^3H]L-citrulline quantitation by liquid scintillation spectroscopy.

[3] = system: prostacyclin synthase; assay: Prostacyclin synthase activity (6-keto-PGF1α) in aortas of streptozotocin-diabetic mice; format: in vivo, mouse; conditions: STZ-diabetic male C57B16 mice, Alzet micro-osmotic pump 10 μg/100 μl, 7 days (FIG. 3)
[4] = system: human aortic endothelial cells (HAEC); assay: Nutrient-induced ROS (CM-H2DCFDA) in human aortic endothelial cells; format: cell-based
Procedure: Cell Culture conditions. Confluent HAECs (passage 1-6) were maintained in EGM2 media containing 0.4% FBS plus growth factor additives. Cells were incubated for varying times with either 5 mM glucose, 12 mM glucose, or 5 mM glucose plus 800 μM oleic acid and 1 mM albumin. In other experiments, cells were incubated with 5 mM glucose, 12 mM glucose, or 5 mM glucose plus 800 μM oleic acid and 1 mM albumin, alone, or with either 100 pM GLP-1 (7-36 NH2), GLP-1 (7-36 NH2)+ the DPPIV inhibitor H-lys(4-nito-Z)-pyrrolidide and the neutral endopeptidase inhibitor phosphoramidon, GLP-1 (9-36 NH2), GLP-1 (9-36 NH2) plus the GLP-1 receptor blocker […], and with GLP-1 (9-36 NH2) with 100× GLP-1 (7-36 NH2) and both DPPIV and NEP inhibitors. Cells were pre incubated for four hrs in cycloheximide (5 ug/ml). In experiments using clotrimazole cells were preincubated for 2.5 hrs in serum free media. Reactive oxygen species quantification. Cells were plated in 96-well cell culture plates. Intracellular reactive oxygen species were detected using the fluorescent probe CM-H2DCFDA (Molecular Probes). Cells were loaded with 10 μM CM-H2DCFDA, incubated for 45 min at 37° C., and analyzed with an HTS 7000 Bio Assay Fluorescent Plate Reader (Perkin Elmer) using the HTSoft program.

[5] = system: prostacyclin (PGI2) synthase; assay: Prostacyclin (PGI2) synthase activity in HAEC lysates (6-keto PGF-1α); format: cell-based, human; conditions: arterial endothelial cells
[6] = system: eNOS; assay: eNOS activity in HAEC lysates; format: cell-based, human; conditions: activity decreased to 25.6% of control without peptide
[7] = system: PGI2 synthase; assay: PGI2 synthase activity in aortas of diabetic GLP-1 receptor knockout mice; format: in vivo, mouse; conditions: STZ-diabetic Glp1r-/- mice, ALZET pump 100 μg/ml at 0.5 μl/hr for 7 days plus 2.5 μg bolus
[8] = system: PGI2 synthase tyrosine nitration; assay: 3-nitrotyrosine-modified prostacyclin synthase in aortas of diabetic Glp1r-/- mice; format: in vivo, mouse; conditions: STZ-diabetic Glp1r-/- mice, ALZET pump 7 days
[9] = system: eNOS; assay: eNOS activity in aortas of diabetic Glp1r-/- mice; format: in vivo, mouse; conditions: STZ-diabetic Glp1r-/- mice, ALZET pump 7 days
[10] = system: myocardial ischemia-reperfusion injury; assay: Myocardial ischemia-reperfusion (MI-R) injury in diabetic mice; format: in vivo, mouse; conditions: for reduction in the percentage of the area-at-risk that was infarcted: 2.4 μg/day 7 days, 45 min occlusion, 2 hr reperfusion
[11] = Blood glucose in diabetic mice (db/db and STZ); format: in vivo, mouse
[12] = system: rat hepatocytes; assay: Gluconeogenesis (glucose production) in isolated rat liver cells; format: cell-based
Procedure: Liver cells were isolated from non-diabetic control strain rats and from SDF rats. Single-cell suspensions of hepatocytes were obtained from perfusions using the procedure of Berry and Friend (1969) and the perfusion mixture of […] et al. (1979). The cells were plated on tissue culture plastic for 6 hours at a density of 2×10^5 cells per well in a 24-well culture plate that was pre-coated with rat-tail collagen I. During plating, cells were cultured in RPMI 1640 medium supplemented with 10% FBS, penicillin/streptomycin, 10 μg/ml insulin and 10 μM dexamethasone. After allowing for adherence, the media was changed to RPMI with 5 mM glucose, 0.4% FCS, and no insulin or dexamethasone. The cells were allowed to equilibrate overnight in this low-glucose media. The following morning this media was refreshed, insulin alone, or insulin and GLP-1(9-36) were added and treatment lasted another 24 hours. After stimulation, glucose production was measured by incubating the cells for 6 hours in glucose-free RPMI containing 5 mM each of alanine, valine, glycine, pyruvate and lactate. Glucose was subsequently measured with a Trinder assay (Sigma). Averages were obtained of 4 independent measurements.

[13] = 10-20 minutes after glucose infusion; Deacon et al., 2002; cited from earlier work
[14] = Wettergren et al., 1998; cited from earlier work

CC[C@H](C)[C@H](NC(=O)[C@H](Cc1ccccc1)NC(=O)[C@H](CCC(=O)O)NC(=O)[C@H](CCCCN)NC(=O)[C@H](C)NC(=O)[C@H](C)NC(=O)[C@H](CCC(N)=O)NC(=O)CNC(=O)[C@H](CCC(=O)O)NC(=O)[C@H](CC(C)C)NC(=O)[C@H](Cc1ccc(O)cc1)NC(=O)[C@H](CO)NC(=O)[C@H](CO)NC(=O)[C@@H](NC(=O)[C@H](CC(=O)O)NC(=O)[C@H](CO)NC(=O)[C@@H](NC(=O)[C@H](Cc1ccccc1)NC(=O)[C@@H](NC(=O)CNC(=O)[C@@H](N)CCC(=O)O)[C@@H](C)O)[C@@H](C)O)C(C)C)C(=O)N[C@@H](C)C(=O)N[C@@H](Cc1c[nH]c2ccccc12)C(=O)N[C@@H](CC(C)C)C(=O)N[C@H](C(=O)N[C@@H](CCCCN)C(=O)NCC(=O)N[C@@H](CCCNC(=N)N)C(N)=O)C(C)C [GLP-1 (9-36)]
hyperglycemia-induced ROS production [1]: inhibited production of ROS | hyperglycemia-induced ROS production ([1]; listed as GLP-1 degradation product): completely inhibits | hyperglycemia-induced decrease in eNOS activity [2]: completely prevents; also recorded: completely inhibits | diabetes-induced inactivation of prostacyclin synthase (6-keto-PGF1α per aorta) [3]: completely eliminated | high glucose-induced ROS in the presence of DPP-4 and neutral endopeptidase 24.11 inhibitors ([4]; HAEC, 12 mM glucose, 2 hrs, with protease inhibitors): completely inhibited | fatty acid-induced ROS ([4]; aortic endothelial cells, 800 μM oleic acid with 1 mM albumin, 360 min): prevented | high glucose-induced decrease in PGI2 synthase activity ([5]; high glucose (95% reduction without peptide)): prevented this decrease | oleic acid-induced decrease in PGI2 synthase activity ([5]; oleic acid): also prevented this decrease | decrease in eNOS activity by high glucose and by oleic acid [6]: also prevented these decreases | diabetes-induced reduction of aortic PGI2 synthase activity [7]: restored activity to levels not statistically different from cells obtained from non-diabetic mice | diabetes-induced increase in PGI2 synthase tyrosine nitration [8]: restored PGI2 synthase tyrosine nitration to non-diabetic levels | diabetes-induced decrease in aortic eNOS activity [9]: restored eNOS activity to levels not statistically different from non-diabetic values | reduction in the percentage of the area-at-risk that was infarcted ([10]; STZ-diabetic mice): 45% | percentage of the left ventricle that was infarcted ([10]; STZ-treated mice, p=0.0002): significantly reduced | serum levels of troponin I ([10]; STZ-treated mice, p=0.04): significantly reduced | reduction in the percentage of the area-at-risk that was infarcted ([10]; db/db mice): 37% | reduction in blood glucose (BG) ([11]; STZ-diabetic mice, 2.4 μg/day via Alzet pump, 7 days): No significant reduction | fasting blood glucose ([11]; db/db mice (Type 2 model), 5 days via subcutaneous Alzet osmotic pump): significantly lowered blood glucose | reduction in blood glucose (BG) values ([11]; db/db mice, 2.4 μg/day via Alzet pump, after 7 days): 48% | blood glucose ([11]; mice with Type 1 diabetes (streptozotocin)): no effect | gluconeogenesis, peptide by itself ([12]; GLP-1 (9-36) without insulin): no Effect | inhibition of gluconeogenesis by liver cells ([12]; liver cells of SDF rats, GLP-1(9-36) with 70 picomolar insulin): maximal, and less than even 1000 pM insulin alone | gluconeogenesis, % of control levels ([12]; liver cells of non-diabetic control strain rats, GLP-1(9-36) with 70 pM insulin, 24 hours): 33 % of control levels | total blood glucose after glucose infusion [13]: reduces total blood glucose somewhat | atrial motility [14]: no effect
